The nature of the data set: general procedure: Fmoc solid-phase peptide synthesis; HMBA-AM resin; HATU/DIEA. The settings on record: whole synthesis, based on the Fmoc-Ala-resin substitution.

“LipidC20-DPhe-NMeVal-Ile-Phe-Ala-OMe (L5P)”: the isolated yield is recorded as 60%.

These data come from patent publication US8883173B2 (priority 2007, dated 2014).
